Some results were stated once for a whole list of compounds, not compound by compound. Oligonucleotides are written 5' to 3', each unit as a sugar letter and its base; * is a phosphorothioate linkage, no mark a phosphodiester; rarer units and linkages stand in square brackets, end groups in braces. Plain capitals give the bases only. e = 2'-O-(2-methoxyethyl) (MOE); [5mC] = 5-methylcytosine; d = 2'-deoxy (DNA)
test system: human apolipoprotein B mRNA; test: Inhibition of human apolipoprotein B mRNA levels in HepG2 cells, quantitative real-time PCR; assay type: cell-based; parameters: concentration or dose not given beside the values; details: averages from two experiments
Protocol: The human hepatoblastoma cell line HepG2 was obtained from the American Type Culture Collection (Manassas, Va.). HepG2 cells were routinely cultured in Eagle's MEM supplemented with 10% fetal calf serum, non-essential amino acids, and 1 mM sodium pyruvate (Gibco/Life Technologies, Gaithersburg, Md.). Cells were routinely passaged by trypsinization and dilution when they reached 90% confluence. Cells were seeded into 96-well plates (Falcon-Primaria #3872) at a density of 7000 cells/well for use in RT-PCR analysis.
When cells reached 80% confluency, they were treated with oligonucleotide. […]
Quantitation of apolipoprotein B mRNA levels was determined by real-time quantitative PCR using the ABI PRISM™ 7700 Sequence Detection System (PE-Applied Biosystems, Foster City, Calif.) according to manufacturer's instructions. This is a closed-tube, non-gel-based, fluorescence detection system which allows high-throughput quantitation of polymerase chain reaction (PCR) products in real-time. As opposed to standard PCR, in which amplification products are quantitated after the PCR is completed, products in real-time quantitative PCR are quantitated as they accumulate. […] With each cycle, additional reporter dye molecules are cleaved from their respective probes, and the fluorescence intensity is monitored at regular intervals by laser optics built into the ABI PRISM™ 7700 Sequence Detection System. […]

Row | Sequence | %INHIB of human apolipoprotein B mRNA levels
1 | AGTGATGGAAGCTGCGATAC (eA*eG*eT*eG*eA*dT*dG*dG*dA*dA*dG*d[5mC]*dT*dG*d[5mC]*eG*eA*eT*eA*e[5mC]) [ISIS 147818] | at least 30%

test system: mouse apolipoprotein B mRNA; test: Inhibition of mouse apolipoprotein B mRNA levels in primary hepatocytes, quantitative real-time PCR; assay type: cell-based; parameters: concentration or dose not given beside the values; details: averages from two experiments
Protocol: Primary mouse hepatocytes were prepared from CD-1 mice purchased from Charles River Labs (Wilmington, Mass.) and were routinely cultured in Hepatoyte Attachment Media (Gibco) supplemented with 10% Fetal Bovine Serum (Gibco/Life Technologies, Gaithersburg, Md.), 250 nM dexamethasone (Sigma), and 10 nM bovine insulin (Sigma). Cells were seeded into 96-well plates (Falcon-Primaria #3872) at a density of 10000 cells/well for use in RT-PCR analysis.
When cells reached 80% confluency, they were treated with oligonucleotide. For cells grown in 96-well plates, wells were washed once with 200 μL OPTI-MEM™-1 reduced-serum medium (Gibco BRL) and then treated with 130 μL of OPTI-MEM™-1 containing 3.75 μg/mL LIPOFECTIN™ (Gibco BRL) and the desired concentration of oligonucleotide. After 4-7 hours of treatment, the medium was replaced with fresh medium. Cells were harvested 16-24 hours after oligonucleotide treatment.
Quantitation of apolipoprotein B mRNA levels was determined by real-time quantitative PCR using the ABI PRISM™ 7700 Sequence Detection System (PE-Applied Biosystems, Foster City, Calif.) according to manufacturer's instructions. This is a closed-tube, non-gel-based, fluorescence detection system which allows high-throughput quantitation of polymerase chain reaction (PCR) products in real-time. As opposed to standard PCR, in which amplification products are quantitated after the PCR is completed, products in real-time quantitative PCR are quantitated as they accumulate. This is accomplished by including in the PCR reaction an oligonucleotide probe that anneals specifically between the forward and reverse PCR primers, and contains two fluorescent dyes. A reporter dye (e.g., JOE, FAM, or VIC, obtained from either Operon Technologies Inc., Alameda, Calif. or PE-Applied Biosystems, Foster City, Calif.) is attached to the 5′ end of the probe and a quencher dye (e.g., TAMRA, obtained from either Operon Technologies Inc., Alameda, Calif. or PE-Applied Biosystems, Foster City, Calif.) is attached to the 3′ end of the probe. When the probe and dyes are intact, reporter dye emission is quenched by the proximity of the 3′ quencher dye. During amplification, annealing of the probe to the target sequence creates a substrate that can be cleaved by the 5′-exonuclease activity of Taq polymerase. […] With each cycle, additional reporter dye molecules are cleaved from their respective probes, and the fluorescence intensity is monitored at regular intervals by laser optics built into the ABI PRISM™ 7700 Sequence Detection System. In each assay, a series of parallel reactions containing serial dilutions of mRNA from untreated control samples generates a standard curve that is used to quantitate the percent inhibition after antisense oligonucleotide treatment of test samples.
PCR reagents were obtained from PE-Applied Biosystems, Foster City, Calif. RT-PCR reactions were carried out by adding 25 μL PCR cocktail (1× TAQMAN™ buffer A, 5.5 mM MgCl2, 300 μM each of DATP, dCTP and dGTP, 600 μM of dUTP, 100 nM each of forward primer, reverse primer, and probe, 20 Units RNAse inhibitor, 1.25 Units AMPLITAQ GOLD™, and 12.5 Units MuLV reverse transcriptase) to 96 well plates containing 25 μL total RNA solution. The RT reaction was carried out by incubation for 30 minutes at 48° C. Following a 10 minute incubation at 95° C. to activate the AMPLITAQ GOLD™, 40 cycles of a two-step PCR protocol were carried out: 95° C. for 15 seconds (denaturation) followed by 60° C. for 1.5 minutes (annealing/extension).
Gene target quantities obtained by real time RT-PCR are normalized using either the expression level of GAPDH, a gene whose expression is constant, or by quantifying total RNA using RiboGreen™ (Molecular Probes, Inc. Eugene, Oreg.). GAPDH expression is quantified by real time RT-PCR, by being run simultaneously with the target, multiplexing, or separately. Total RNA is quantified using RiboGreen™ RNA quantification reagent from Molecular Probes. […]

Row | Sequence | %INHIB of mouse apolipoprotein B mRNA levels
2 | GCTTGAAGTTCATTGAGAAT (eG*e[5mC]*eT*eT*eG*dA*dA*dG*dT*dT*d[5mC]*dA*dT*dT*dG*eA*eG*eA*eA*eT; antisense) [ISIS 147776] | at least 50%
3 | GGAAGTGAGACTTTCTAAGC (eG*eG*eA*eA*eG*dT*dG*dA*dG*dA*d[5mC]*dT*dT*dT*d[5mC]*eT*eA*eA*eG*e[5mC]; antisense) [ISIS 147505] | at least 50%
4 | ATTTGGGACGAATGTATGCC (eA*eT*eT*eT*eG*dG*dG*dA*d[5mC]*dG*dA*dA*dT*dG*dT*eA*eT*eG*e[5mC]*e[5mC]; antisense) [ISIS 147485] | at least 50%
5 | CAATGGAATGCTTCTCACTG (e[5mC]*eA*eA*eT*eG*dG*dA*dA*dT*dG*d[5mC]*dT*dT*d[5mC]*dT*e[5mC]*eA*e[5mC]*eT*eG; antisense) [ISIS 147492] | at least 50%
6 | GTTATAAAGTCCAGCATTGG (eG*eT*eT*eA*eT*dA*dA*dA*dG*dT*d[5mC]*d[5mC]*dA*dG*d[5mC]*eA*eT*eT*eG*eG; antisense) [ISIS 147772] | at least 50%
7 | ATTGTATGTGAGAGGTGAGG (eA*eT*eT*eG*eT*dA*dT*dG*dT*dG*dA*dG*dA*dG*dG*eT*eG*eA*eG*eG; antisense) [ISIS 147475] | at least 50%
8 | AGGAAGGAACTCTTGATATT (eA*eG*eG*eA*eA*dG*dG*dA*dA*d[5mC]*dT*d[5mC]*dT*dT*dG*eA*eT*eA*eT*eT; antisense) [ISIS 147506] | at least 50%
9 | AGCTTGCTTGTTGGGCACGG (eA*eG*e[5mC]*eT*eT*dG*d[5mC]*dT*dT*dG*dT*dT*dG*dG*dG*e[5mC]*eA*e[5mC]*eG*eG; antisense) [ISIS 147488] | at least 50%

From patent US8735364B2, “Antisense modulation of apolipoprotein B expression” (Genzyme Corporation, priority 2001, dated 2014)
